# The other results are listed elsewhere or left out. This data set is noisy: repeats of one test often differ as much as different tests do.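 Human embryonic kidney cells were transiently transfected with a plasmid bearing a Renilla luciferase gene under the HSV-TK promoter. This first-round screen tests roughly ten thousand compounds for ones that increase reporter output.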
# System: HEK 293FT
# Experiment: log relative Renilla luciferase luminescence (reporter expression vs reference, reference not stated) (log (base not stated)); higher = higher recombinant reporter expression
# Settings: 10 µM; time after transfection 48 h
# Method: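 HEK 293FT cells transiently transfected with pRL-TK (Renilla luciferase) were treated with compounds at 10 uM and luminescence was read about 42 h later. Values are log relative Renilla luminescence (log base and reference not stated). Single-pass screen; ICCB Known Bioactives library.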
row,SMILES,log
1,C[C@H](CCC(=O)O)C[C@H](C)C[C@H](C)C(=O)/C=C(\O)[C@H](C)C[C@H](C)C/C=C/[C@@H](C)[C@@H](O)[C@@H](C)[C@@H](O)C[C@@H]1CC[C@@](C)([C@H]2CC[C@@](C)([C@@H](C)O)O2)O1 [Ionomycin],0.267
2,C=C1[C@@H](O)[C@@H]2O[C@]3(CC[C@H](/C=C/[C@@H](C)[C@@H]4CC(C)=C[C@@]5(O[C@H](C[C@@](C)(O)C(=O)O)CC[C@H]5O)O4)O3)CC[C@H]2O[C@@H]1[C@@H](O)C[C@H](C)[C@H]1O[C@@]2(CCCCO2)CC[C@H]1C [Okadaic acid],-2.1
3,CCCCC[C@@H](/C=C/C=C\CCCCCCCC(=O)O)OO,0.0921
4,CCCCC/C=C\C[C@@H](/C=C/C=C\C/C=C\CCCC(=O)O)OO,-1.5
5,CCNC(=O)C1OC(n2cnc3c(N)ncnc32)C(O)C1O (stereo unspecified) [5'-N-Ethylcarboxamidoadenosine (NECA)],-0.286
6,C/C(O)=C(\C#N)C(=O)Nc1cc(Br)ccc1Br,0.329
7,CC[C@@]1(O)C(=O)OCc2c1cc1n(c2=O)Cc2cc3ccccc3nc2-1 [Camptothecin],-1.34
8,Clc1ccc(C2CC3CCC2N3)cn1 (racemic) [Epibatidine (±)],-0.132
9,CC(=O)N[C@H]1[C@@H](O[C@@H]2O[C@H](CC(O)[C@H]3O[C@@H](n4ccc(=O)[nH]c4=O)[C@H](O)[C@@H]3O)[C@H](O)[C@H](O)[C@H]2NC(=O)/C=C/CC(C)C)O[C@H](CO)[C@@H](N)[C@@H]1O (stereo partly specified) [Tunicamycin],0.0123
10,CNc1ccc2oc(C[C@H]3O[C@@]4(CC[C@H]3C)O[C@H]([C@H](C)C(=O)c3ccc[nH]3)[C@H](C)C[C@H]4C)nc2c1C(=O)O,-0.0297
11,"CCCCCC1OC1C/C=C\CCCCCCCC(=O)O (stereo unspecified) [Leukotoxin B (12,13-EODE)]",-0.232

# Source: the supplement of paper PMC7024190
